PubChem BioAssay AID493246 – Drosophila RNAi Screening Center | 2011
In all, the deposit lists about 21,000 reagents; shown is a random part of those with a known target gene and a result. Over the whole deposit, 429 (2%) are marked active. 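Values are raw and not normalised between plates; calls rest on per-plate z-scores that were not deposited.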 A number with no mark means an inactive call. Names joined by + are all predicted targets of the reagent. Not given: the amount of reagent, the time to read-out.

Purpose: 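Identify essential fly genes by loss of cell viability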 (primary screen)
Cell system: Drosophila Kc and S2R+ cells
Reagents: long dsRNA against Drosophila genes
Measurement: 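Cell number per well after knock-down, printed as raw plate values; calls were based on per-plate z-scores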
Reading the numbers: Kc cell number and S2R+ cell number: higher = more cells remaining
Active means: 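Counted as a hit if cell number falls by a z-score of at least 3 within its plate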

| Gene | amplicon | Kc cell number, rep 1 | Kc cell number, rep 2 | S2R+ cell number, rep 1 | S2R+ cell number, rep 2 |
| --- | --- | --- | --- | --- | --- |
| CG18449 | DRSC06754 | 1.45e6 | 1.60e6 | 1.28e6 | 1.41e6 |
| Arr1 | DRSC01867 | 1.90e6 | 1.87e6 | 1.44e6 | 1.58e6 |
| CG15445 | DRSC20517 | 1.47e6 | 1.45e6 | 8.30e5 | 9.65e5 |
| gsb | DRSC04692 | 1.65e6 | 1.51e6 | 1.36e6 | 1.40e6 |
| mRpL17 | DRSC08350 | 1.53e6 | 1.43e6 | 9.29e5 | 1.10e6 |
| Ndfip | DRSC11201 | 1.52e6 | 1.57e6 | 1.23e6 | 1.31e6 |
| eEF5 | DRSC04681 | 1.52e6 | 1.58e6 | 1.25e6 | 1.27e6 |
| Pgant6 | DRSC08552 | 1.36e6 | 1.35e6 | 1.03e6 | 1.06e6 |
| CG7080 | DRSC16193 | 1.57e6 | 1.57e6 | 1.19e6 | 1.23e6 |
| ppk30 | DRSC15302 | 1.43e6 | 1.44e6 | 9.88e5 | 1.10e6 |
| Muc91C | DRSC16297 | 1.22e6 | 1.40e6 | 1.06e6 | 1.18e6 |
| pre-mod(mdg4)-Z + mod(mdg4) + pre-mod(mdg4)-T | DRSC13477 | 1.40e6 | 1.43e6 | 1.03e6 | 1.16e6 |
| pre-mod(mdg4)-Z + mod(mdg4) + pre-mod(mdg4)-T | DRSC17001 | 1.49e6 | 1.40e6 | 1.06e6 | 1.16e6 |
| CG5347 | DRSC19942 | 1.47e6 | 1.51e6 | 1.09e6 | 1.15e6 |
| mav | DRSC17149 | 1.58e6 | 1.58e6 | 1.04e6 | 1.20e6 |
| BG642163 | DRSC00342 | 1.51e6 | 1.44e6 | 1.14e6 | 1.20e6 |
| BG642163 | DRSC00343 | 1.52e6 | 1.44e6 | 1.13e6 | 1.29e6 |
| eIF4H1 | DRSC20276 | 1.47e6 | 1.47e6 | 1.08e6 | 1.21e6 |
| CG32582 (retired record) | DRSC19114 | 1.34e6 | 1.65e6 | 1.05e6 | 1.21e6 |
| CG4278 | DRSC02741 | 1.37e6 | 1.41e6 | 1.38e6 | 1.40e6 |
| CG13855 | DRSC14705 | 1.33e6 | 1.33e6 | 1.16e6 | 1.28e6 |
| Cyp304a1 | DRSC16623 | 1.49e6 | 1.44e6 | 8.11e5 | 1.01e6 |
| CG3713 | DRSC18648 | 1.57e6 | 1.53e6 | 1.04e6 | 1.13e6 |

Continued, starting with the last 3 of the part before.
| Gene | amplicon | Kc cell number, rep 1 | Kc cell number, rep 2 | S2R+ cell number, rep 1 | S2R+ cell number, rep 2 |
| --- | --- | --- | --- | --- | --- |
| CG13855 | DRSC14705 | 1.33e6 | 1.33e6 | 1.16e6 | 1.28e6 |
| Cyp304a1 | DRSC16623 | 1.49e6 | 1.44e6 | 8.11e5 | 1.01e6 |
| CG3713 | DRSC18648 | 1.57e6 | 1.53e6 | 1.04e6 | 1.13e6 |
| ClpP | DRSC02806 | 1.39e6 | 1.37e6 | 1.19e6 | 1.32e6 |
| Zn72D | DRSC11318 | 1.42e6 | 1.45e6 | 1.15e6 | 1.24e6 |
| ms(2)35Ci | DRSC01460 | 1.51e6 | 1.64e6 | 9.27e5 | 1.17e6 |
| sli | DRSC07684 | 1.62e6 | 1.65e6 | 1.17e6 | 1.32e6 |
| Elal | DRSC16662 | 1.85e6 | 1.86e6 | 1.41e6 | 1.48e6 |
| CG9997 | DRSC16591 | 1.43e6 | 1.46e6 | 1.03e6 | 1.14e6 |
| CG1824 | DRSC19796 | 1.58e6 | 1.51e6 | 1.02e6 | 1.14e6 |
| CG13192 | DRSC06317 | 1.54e6 | 1.56e6 | 1.24e6 | 1.39e6 |
| Ctr1B + Poxm | DRSC16245 | 1.54e6 | 1.68e6 | 1.16e6 | 1.28e6 |
| CG14414 | DRSC19599 | 1.59e6 | 1.59e6 | 1.17e6 | 1.22e6 |
| CG42342 | DRSC13165 | 1.42e6 | 1.52e6 | 1.03e6 | 1.14e6 |
| CG42342 | DRSC15010 | 1.43e6 | 1.51e6 | 1.00e6 | 1.11e6 |
| CG42342 | DRSC15011 | 1.44e6 | 1.46e6 | 9.99e5 | 1.21e6 |
| CG42342 | DRSC15012 | 1.51e6 | 1.52e6 | 1.07e6 | 1.24e6 |
| Eaf | DRSC05050 | 1.34e6 | 1.42e6 | 8.95e5 | 9.59e5 |
| Eaf | DRSC06052 | 1.69e6 | 1.79e6 | 1.27e6 | 1.40e6 |
| Nagk | DRSC15994 | 1.60e6 | 1.68e6 | 1.43e6 | 1.50e6 |
| galene | DRSC08640 | 1.54e6 | 1.17e6 | 1.00e6 | 1.24e6 |
| galene | DRSC08641 | 1.27e6 | 1.22e6 | 9.92e5 | 1.19e6 |
| CG6873 | DRSC20014 | 1.56e6 | 1.63e6 | 8.45e5 | 9.74e5 |
| Or43b | DRSC07486 | 1.49e6 | 1.59e6 | 1.18e6 | 1.34e6 |
| CG3687 | DRSC06850 | 1.54e6 | 1.55e6 | 1.12e6 | 1.22e6 |
| Kat60 | DRSC12378 | 1.65e6 | 1.88e6 | 1.32e6 | 1.46e6 |
| Etfb | DRSC16324 | 5.23e5 | – | 8.34e5 | – |
| CG8303 | DRSC07140 | 1.56e6 | 1.60e6 | 1.15e6 | 1.28e6 |
| dati | DRSC17128 | 5.11e5 | – | 8.21e5 | – |
| dati | DRSC17153 | 1.44e6 | 1.44e6 | 1.02e6 | 1.08e6 |
| eIF4G1 | DRSC17218 | 3.65e5 | – | 7.09e5 | – |
| CG13069 | DRSC09952 | 1.46e6 | 1.74e6 | 1.40e6 | 1.51e6 |
| CG2129 | DRSC18209 | 5.01e5 | – | 8.77e5 | – |
| CG1785 | DRSC18139 | 6.03e5 | – | 8.29e5 | – |
| Obp47a | DRSC06255 | 1.78e6 | 1.68e6 | 1.33e6 | 1.55e6 |
| Su(var)3-9 | DRSC14484 | 1.64e6 | 1.63e6 | 1.19e6 | 1.24e6 |
| CG42748 | DRSC03712 | 1.45e6 | 1.53e6 | 1.30e6 | 3.04e5 |
| CG42748 | DRSC03713 | 1.46e6 | 1.51e6 | 1.03e6 | 1.15e6 |
| CG42748 | DRSC03734 | 1.48e6 | 1.56e6 | 1.17e6 | 2.68e5 |
